# Publication PMC8836349, “Characterization of adenine phosphoribosyltransferase (APRT) activity in Trypanosoma brucei brucei: Only one of the two isoforms is kinetically active” (PLoS Neglected Tropical Diseases, 2022)
# Results are given in words; binding and its absence hold for the method and conditions named. Tags and fused reporters may be left off the sequences shown.
# B1: APRT2-Ntag (Trypanosoma brucei brucei putative adenine phosphoribosyltransferase 2, Tb927.7.1790, expressed from pPICZ-Ntag) (natural protein, UniProt Q57V31 1-230, looked up)
# chain: MSQYDAILTERHPHHFTLADTHPLAKELHANIFGESDLTHANCAHVYDISSLTEKPALFRKVIEFLKCRYETMGDTGPTHIIGVESRGYIIGAPLAVALGIPFVTARVTKRFPSSFVPEGDDLKYLPMSRSIRNDSIPPRARVLIVDDFIGTGSTMLAALRLADIVAAQVVEVLTVCDVASLGGIKIIRESDDEMFKETPIFTLIHFKLSPREAEEQLEFVNSYITRSRL
# notes: APRT2 of Trypanosoma brucei brucei, Tb927.7.1790, UniProt Q57V31; the ORF, codon optimised for P. pastoris, cloned into pPICZ-Ntag; Tags removed with TEV protease; measured native-MS mass 25,860 Da (theoretical 25,853 Da); also called TbbAPRT2; source: Pichia pastoris strain smPP, purified (Ni-NTA, TEV cleavage, second Ni-NTA); not shown: His6, N-terminal, cleaved; mCherry, N-terminal, cleaved
# B2: APRT2-Ctag (Trypanosoma brucei brucei putative adenine phosphoribosyltransferase 2, Tb927.7.1790, expressed from pPICZ-Ctag) (natural protein, UniProt Q57V31 1-230, looked up)
# chain: B1 chain
# notes: APRT2 of Trypanosoma brucei brucei, Tb927.7.1790, UniProt Q57V31; the ORF, codon optimised for P. pastoris, cloned into pPICZ-Ctag; Tags removed with TEV protease; measured native-MS mass 26,637 Da (theoretical 26,647 Da), so residues of the TEV site are likely left at the C-terminus; also called TbbAPRT2; source: Pichia pastoris strain smPP, purified (Ni-NTA, TEV cleavage, second Ni-NTA); not …
# Experiments:
# [1] = molecular target: APRT2-Ntag (Trypanosoma brucei brucei putative adenine phosphoribosyltransferase 2, Tb927.7.1790, expressed from pPICZ-Ntag) (Trypanosoma brucei brucei) (UniProt Q57V31); assay: condition: only after dilution (series 17.8-140 ug mL^-1; concentration of loss not told); cross-linking; as a1 (DMS 8.7 mM, 0.2 M triethanolamine pH 8.5, RT), the diluted samples of the series 17.8-140 ug mL^-1; at which concentration the dimer is lost is not told; both purified
# [2] = molecular target: APRT2-Ctag (Trypanosoma brucei brucei putative adenine phosphoribosyltransferase 2, Tb927.7.1790, expressed from pPICZ-Ctag) (Trypanosoma brucei brucei) (UniProt Q57V31); assay: as above
Binder,binding [1],binding [2]
B1,no binding,–
B2,–,no binding
